Source: patent publication US20230312724A1
No constants are given. Whether binding was seen depends on the method and setting. Some binding calls cover weakened binding; strength is not graded here.

Amino acid sequences for entries named in this document (tags omitted). A change or cut given only in a name is not applied to a line headed by its entry.
UniProt Q7Z7D3: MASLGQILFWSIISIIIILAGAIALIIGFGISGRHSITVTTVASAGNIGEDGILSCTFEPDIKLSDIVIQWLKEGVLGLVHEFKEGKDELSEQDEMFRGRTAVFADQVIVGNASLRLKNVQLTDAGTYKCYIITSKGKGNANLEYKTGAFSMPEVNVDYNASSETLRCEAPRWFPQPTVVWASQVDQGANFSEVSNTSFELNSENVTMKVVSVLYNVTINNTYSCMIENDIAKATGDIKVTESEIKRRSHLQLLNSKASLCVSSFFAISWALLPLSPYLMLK
UniProt Q7TSP5: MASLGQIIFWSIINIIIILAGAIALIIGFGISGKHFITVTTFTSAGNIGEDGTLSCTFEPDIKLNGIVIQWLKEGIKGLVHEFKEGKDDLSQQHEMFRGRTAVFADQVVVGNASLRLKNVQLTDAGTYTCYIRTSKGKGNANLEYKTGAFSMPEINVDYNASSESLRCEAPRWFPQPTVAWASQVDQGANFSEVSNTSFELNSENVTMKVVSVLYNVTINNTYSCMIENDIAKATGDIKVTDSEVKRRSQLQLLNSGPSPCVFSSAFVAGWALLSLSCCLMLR

How the values were obtained:
human B7-H4-Fc (human) [1] = assay: ELISA on coated hB7-H4-Fc
[2] = molecular target: IgV domain of human B7-H4-Fc (human); assay: ELISA (FIG. 16)
[3] = molecular target: IgV domain of human B7-H4-Fc (human); assay: ELISA (FIG. 9)
[4] = molecular target: IgV domain of human B7-H4-Fc (human); assay: ELISA, coated hB7-H4 IgV domain
human B7-H4-Fc (human) [5] = assay: ELISA, coated hB7-H4-Fc
[6] = molecular target: IgV domain of human B7-H4-Fc (human); assay: ELISA on coated IgV domain of hB7-H4
human B7-H4-his (human) [7] = molecular target: human B7-H4-his (human) (UniProt Q7Z7D3); assay: ELISA on coated hB7-H4-his
human B7-H4-his (human) [8] = molecular target: human B7-H4-his (human) (UniProt Q7Z7D3); assay: ELISA, coated hB7-H4-his
[9] = molecular target: IgV domain of mouse B7-H4-Fc (mouse; human); assay: ELISA (FIG. 14)
[10] = molecular target: IgV domain of human B7-H4-Fc (human); assay: ELISA (FIG. 14)
[11] = molecular target: IgV domain of mouse B7-H4-Fc (mouse; human); assay: ELISA, coated mB7-H4 IgV domain
[12] = molecular target: IgV domain of human B7-H4-Fc (human); assay: ELISA
[13] = molecular target: hB7-H4 (soluble human B7-H4, construct not named) (human) (UniProt Q7Z7D3); assay: ELISA
[14] = molecular target: hB7-H4 (soluble human B7-H4, construct not named) (human) (UniProt Q7Z7D3); assay: summary of ELISA and flow cytometry
[15] = molecular target: mB7-H4 (soluble mouse B7-H4, construct not named) (mouse) (UniProt Q7TSP5); assay: summary of ELISA and flow cytometry
[16] = molecular target: mB7-H4 (soluble mouse B7-H4, construct not named) (mouse) (UniProt Q7TSP5); assay: ELISA and flow cytometry (FIG. 6)
[17] = molecular target: hB7-H4 (soluble human B7-H4, construct not named) (human) (UniProt Q7Z7D3); assay: ELISA and flow cytometry (FIG. 6)
[18] = molecular target: IgV domain of mouse B7-H4-Fc (mouse; human); assay: ELISA on coated IgV domain of mB7-H4
mouse B7-H4-his (mouse) [19] = molecular target: mouse B7-H4-his (mouse) (UniProt Q7TSP5); assay: ELISA, coated mB7-H4-his
mouse B7-H4-his (mouse) [20] = molecular target: mouse B7-H4-his (mouse) (UniProt Q7TSP5); assay: ELISA on coated mB7-H4-his

Binder	binding [4]	binding (human B7-H4-Fc (human) [5])	binding (human B7-H4-his (human) [8])	binding [9]	binding [10]	binding [11]	binding [14]	further results
3F2/50A10 (antibody, human IgG1, V domains shown) VH: QVQLVQSGAEVKKPGASVKVSCKASGYTFTAQYMYWVRQAPGQGLEWMGRINPTSGNTVYAQKLQGRVTMTRDTSTSTVYMELSSLRSEDTAVYYCARGINWFDPWGQGTLVTVSS VL: DIQMTQSPSSLSASVGDRVTITCQASQDISNYINWYQQKPGKAPKLLIYAASRLQSGVPSRFSGSGSGTDFTLTISSLQPEDFATYYCQQSYRSPFTFGQGTKLEIK	binds	binds	binds	–	–	–	–	binding (human B7-H4-Fc (human) [1]): binds; binding [2]: binds; binding [3]: binds; binding [6]: binds; binding (human B7-H4-his (human) [7]): binds
4H6/4H6 (antibody, human IgG1, V domains shown) VH: EVQLLESGGGLVQPGGSLRLSCAASGFTFSSYGMHWVRQAPGKGLEWVSGISGSGGSTYYADSVKGRFTISRDNSKNTLYLQMNSLRAEDTAVYYCARTQWRASLDPWGQGTLVNVSS VL: DIQMTQSPSSLSASVGDRVTITCRASQDISYWLAWYQQKPGKAPKLLIYGASTLQSGVPSRFSGSGSGTDFTLTISSLQPEDFATYYCQQTTMSPYTFGQGTKVEIK	binds	binds	–	–	–	–	binds	binding [12]: binds; binding [13]: binds
1D3/45A2 (antibody, human IgG1, V domains shown) VH: EVQLLESGGGLVQPGGSLRLSCAASGFTFNTHAMHWVRQAPGKGLEWVSAISGSGGSTYYADSVKGRFTISRDISKNTLYLQMNSLRAEDTAVYYCARLLGRFGEYGMDVWGQGTTVTVSS VL: DIQMTQSPSSLSASVGDRVTITCRASQNIYTWLAWYQQKPGKAPKLLIYDATNLPTGVPSRFSGSGSGTDFTLTISSLQPEDFATYYCQQSYSTRWTFGGGTKVEIK	binds	binds	binds	–	–	–	–	binding [3]: binds
1D3/47B2 (antibody, human IgG1, V domains shown) VH: EVQLLESGGGLVQPGGSLRLSCAASGFTFNTHAMHWVRQAPGKGLEWVSAISGSGGSTYYADSVKGRFTISRDISKNTLYLQMNSLRAEDTAVYYCARLLGRFGEYGMDVWGQGTTVTVSS VL: DIQMTQSPSSLSASVGDRVTITCRASQTVYTWLAWYQQKPGKAPKLLIYDATNLATGVPSRFSGSGSGTDFTLTISSLQPEDFATYYCQQSYSTSWTFGGGTKVEIK	binds	binds	binds	–	–	–	–	binding [3]: binds
1A12/1A12 (antibody, human IgG1, V domains shown) VH: EVQLLESGGGLVKPGGSLRLSCAASGFTFSSYAMHWVRQAPGKGLEWVAVISYDGSNKYYADSVKGRFTISRDDSKNTLYLQMNSLKTEDTAVYYCARHGWDAFDIWGQGTLVTVSS VL: DIQMTQSPSSLSASVGDRVTITCRASQDISNRLNWYQQKPGKAPKLLIYLASSLQGGVPSRFSGSGSGTDFTLTISSLQPEDFATYYCQQAISFPLTFGGGTKVEIK	binds	binds	binds	–	–	–	binds	binding [12]: binds; binding [13]: binds
5E4/5E4 (antibody, human IgG1, V domains shown) VH: QVQLVQSGAEVKKPGASVKVSCKASGYTFTSYDINWVRQAPGQGLEWMGWMNPNSGNTGYAQKFQGRVTMTRDTSTSTVYMELSSLRSEDTAVYYCARGELWFGEFDYYYYYGMDVWGQGTTVTVSS VL: DIQMTQSPSSLSASVGDRVTITCRASQSISSYLNWYQQKPGKAPKLLIYGASSLQSGVPSRFSGSGSGTDFTLTISSLQPEDFATYYCQQADRIPFTFGRGTKVEIK	–	binds	–	–	–	–	binds	binding [15]: binds; binding [16]: binds; binding [17]: binds

More lines, main results first:

binding [4]	binding (human B7-H4-Fc (human) [5])	binding (human B7-H4-his (human) [8])	binding [9]	binding [10]	binding [11]	binding [14]	Binder	further results
binds	binds	–	binds	binds	binds	–	39A11/57H3 (antibody, human IgG1, V domains shown) VH: EVQLLESGGGLVQPGGSLRLSCAASGFTFSSYGMHWVRQAPGKGLEWVASISSSSGYIYYADSVKGRFTISRDNSKNTLYLQMNSLRAEDTAVYYCARASSGMDVWGQGTTVTVSS VL: DIQMTQSPSSLSASVGDRVTITCQASQDIRKYLNWYQQKPGKAPKLLIYAASTRESGVPSRFSGSGSGTDFTLTISSLQPEDFATYYCQQYYSLPLTFGQGTKLEIK	–
binds	binds	–	binds	binds	binds	–	39A11/56H7 (antibody, human IgG1, V domains shown) VH: EVQLLESGGGLVQPGGSLRLSCAASGFTFSSYGMHWVRQAPGKGLEWVASISSSSGYIYYADSVKGRFTISRDNSKNTLYLQMNSLRAEDTAVYYCARASSGMDVWGQGTTVTVSS VL: DIQMTQSPSSLSASVGDRVTITCRASQSISSYLNWYQQKPGKAPKLLIYAASNLQSGVPSRFSGSGSGTDFTLTISSLQPEDFATYYCQQYYTTPLTFGQGTKLEIK	–
–	binds	–	–	–	–	binds	5G6/5G6 (antibody, human IgG1, V domains shown) VH: QVQLVQSGAEVKKPGASVKVSCKASGYTFTSYYMHWVRQAPGQGLEWLGWVNPNTGTTRFAQKFQGRVTMTRDTSTSTVYMELSSLRSEDTAVYYCARDANYYYGMDVWGQGTMVTVSS VL: DIVMTQSPDSLAVSLGERATINCKSSQSVLYSSNNKNYLAWYQQKPGQPPKLLIYWASTRESGVPDRFSGSGSGTDFTLTISSLQAEDVATYYCQKYNSALPITFGQGTRLEIK	binding [15]: binds; binding [16]: binds; binding [17]: binds
binds	binds	binds	–	–	binds	–	Control antibody 1 (antibody 20502 described in US20190085080A1) (antibody, V domains shown) VH: QLQLQESGPGLVKPSETLSLTCTVSGGSIKSGSYYWGWIRQPPGKGLEWIGNIYYSGSTYYNPSLRSRVTISVDTSKNQFSLKLSSVTAADTAVYYCAREGSYPNQFDPWGQGTLVTVSS VL: EIVMTQSPATLSVSPGERATLSCRASQSVSSNLAWYQQKPGQAPRLLIYGASTRATGIPARFSGSGSGTEFTLTISSLQSEDFAVYYCQQYHSFPFTFGGGTKVEIK	binding (human B7-H4-Fc (human) [1]): binds; binding [18]: binds; binding [6]: binds; binding (mouse B7-H4-his (mouse) [19]): binds; binding (human B7-H4-his (human) [7]): binds; binding (mouse B7-H4-his (mouse) [20]): binds
binds	binds	–	binds	binds	binds	–	39A11/62F9 (antibody, human IgG1, V domains shown) VH: EVQLLESGGGLVQPGGSLRLSCAASGFTFSSYGMHWVRQAPGKGLEWVASISSSSGYIYYADSVKGRFTISRDNSKNTLYLQMNSLRAEDTAVYYCARASSGMDVWGQGTTVTVSS VL: DIQMTQSPSSLSASVGDRVTITCRASQSVSSAVAWYQQKPGKAPKLLIYAASIRESGVPSRFSGSGSGTDFTLTISSLQPEDFATYYCQQYYSTPLTFGQGTKLEIK	–
binds	binds	–	binds	binds	binds	–	39A11/56A9 (antibody, human IgG1, V domains shown) VH: EVQLLESGGGLVQPGGSLRLSCAASGFTFSSYGMHWVRQAPGKGLEWVASISSSSGYIYYADSVKGRFTISRDNSKNTLYLQMNSLRAEDTAVYYCARASSGMDVWGQGTTVTVSS VL: DIQMTQSPSSLSASVGDRVTITCRASQSISSYLNWYQQKPGKAPKLLIYAASIRESGVPSRFSGSGSGTDFTLTISSLQPEDFATYYCQQYYTTPLTFGQGTKLEIK	–
–	binds	–	–	–	–	binds	5F4/5F4 (antibody, human IgG1, V domains shown) VH: EVQLLESGGGLVKPGGSLRLSCAASGFTFSSYAMHWVRQAPGKGLEWVSAIGGSGRTTYYADSVKGRFTISRDDSKNTLYLQMNSLKTEDTAVYYCARERGYSYGQIDYWGQGTLVTVSS VL: DIVMTQSPLSLPVTPGEPASISCRSSQSLLHSNGYNYLDWYLQKPGQSPQLLIYAASSLQSGVPDRFSGSGSGTDFTLKISRVEAEDVGVYYCMQGAHWPLTFGQGTKVEIK	binding [15]: binds; binding [16]: binds; binding [17]: binds
